Holding throughout (experiment): EMSA
What all share (conditions): EMSA binding buffer not given (as in cited work), 8% native PAGE, phosphorylation pretreatment 50 mM acetyl phosphate, 50 mM Tris-Cl pH 8.0, 5 mM MgCl2, 30 min 30 C, recombinant protein, protein details: 6xHis, label: biotin

Data set [1] concerns the target T1, MtrA D53N (Streptomyces venezuelae 10712) (UniProt F2R521).
T1 sequence (looked up, limits assumed): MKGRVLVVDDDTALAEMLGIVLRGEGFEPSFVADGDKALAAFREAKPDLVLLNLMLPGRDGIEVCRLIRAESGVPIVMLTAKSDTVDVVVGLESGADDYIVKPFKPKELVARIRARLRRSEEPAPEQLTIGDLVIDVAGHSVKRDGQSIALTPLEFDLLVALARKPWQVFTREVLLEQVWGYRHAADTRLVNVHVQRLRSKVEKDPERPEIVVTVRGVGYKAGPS

For data set [2], the target named is T2, MtrA D53A (Streptomyces venezuelae 10712) (UniProt F2R521).
T2 sequence (looked up, limits assumed): T1 sequence (looked up, limits assumed) with N53A

The target of data set [3] is T3, MtrA D53E (Streptomyces venezuelae 10712) (UniProt F2R521).
T3 sequence (looked up, limits assumed): T1 sequence (looked up, limits assumed) with N53E

Data set [4] deals with T4, MtrA (MtrASVE) (Streptomyces venezuelae 10712) (UniProt F2R521).
T4 sequence (looked up, limits assumed): T1 sequence (looked up, limits assumed) with N53D

The mark [5] stands for this setting: up to 8.3 uM, no or only very weak shift.
The mark [6] stands for this setting: pretreated with 50 mM acetyl phosphate, 5 mM MgCl2, 1.2-2.4 uM.

Residue numbers refer to the chain shown, from its start. Construct, isoform or probe ends are uncertain for at least one entry. For some assays here: A negative result means that nothing was seen under these conditions. At least one verdict rests on a figure or table, not on a statement of the authors. Protein sequences can lack the tags named with them.

In the case of “ACACTCCTTCTCCGCGCCGGGGGTGTCCAAGTCGTTAGACACGGCGTTCCGGGCGTTGC (double strand) [cmlN-1 probe (SVEN0915/16 WT)]”, the binding result is reported as “no binding” in data set [1] (setting [5]); “no binding” in data set [2] (setting [5]); “no binding” in data set [3] (setting [5]); “binds” in data set [4] (4.7 and 8.3 uM protein).

For the sequence “AGGAAAGCTGAGTAACACGGGGTTCACATTCGGGCAACCGACGGGAAATCCCGTGTTGC (double strand) [glnII probe (SVEN1874 WT)]”, the binding result was “no binding” in data set [1] (setting [5]); “no binding” in data set [2] (setting [5]); “no binding” in data set [3] (setting [5]); “binds” in data set [4] (4.7 and 8.3 uM protein).

For the sequence “CATGAGATCGCAAAGCCGCAGTTAACGAGCCGGAAAAACTTCCGCCCTAACGTGCAATG (double strand) [ureA probe (SVEN0835 WT)]”, the binding result in data set [1] (setting [6]) was “no binding”; in data set [2] (setting [6]) it was “no binding”; in data set [3] (setting [6]) it was “no binding”; in data set [4] (no acetyl phosphate, 0.6-2.4 uM), “binds”; in data set [4] (pretreated with 50 mM acetyl phosphate (MtrA-P), 5 mM MgCl2, binding enhanced, 0.6-2.4 uM) it was “binds”.

Regarding “CCCACCCCGGTTAACTTCGACGAAACAATTGGGTCATGCTTGAGAAATCCCGTCTGCCT (double strand) [glnA probe (SVEN1863 WT)]”, the binding result in data set [1] (setting [5]) is reported as “no binding”; in data set [2] (setting [5]) it was “no binding”; in data set [3] (setting [5]) it was “no binding”; in data set [4] (4.7 and 8.3 uM protein), “binds”.

For the sequence “CCGGCCGTTCACGGTCGCGTAACACGCCCCACCCCTTCGTCACGGCTCCGAAACATCGA (double strand) [amtB probe (SVEN5279 WT)]”, the binding result in data set [1] (setting [5]) is “no binding”; in data set [2] (setting [5]), “no binding”; in data set [3] (setting [5]), “no binding”; in data set [4] (4.7 and 8.3 uM protein), “binds”.

As to “GCTCTCGCGCCCTGAGAGCTTTTGTTCATCCATCCGTAACAACGGTCGGAAAACGCAAA (double strand) [glnR probe (SVEN3917 WT)]”, the binding result in data set [1] (setting [5]) is reported as “no binding”; in data set [2] (setting [5]), “no binding”; in data set [3] (setting [5]), “no binding”; in data set [4] (4.7 and 8.3 uM protein) it was “binds”.

Turning to “TGCGATTTCAATCATCACGATGTCAACTCCGTGTCAAATTTTCGTTGCACGACTCTCGG (double strand) [jadR1-R2 probe (SVEN5972/73 WT)]”, the binding result in data set [1] (setting [5]) was “no binding”; in data set [2] (setting [5]) it was “no binding”; in data set [3] (setting [5]), “no binding”; in data set [4] (4.7 and 8.3 uM protein) it was “binds”.
